PubChem BioAssay AID1259424 – University of Nebraska Medical Center – 2018

- Test: 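Seek colon cancer survival genes behaving like KSR1, using a six-gene signature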 (primary screen)
- Cells: human HCT116 colon cancer cells
- Knock-down reagent: siRNA pool against human genes, 50 nM
- Detection: 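Six signature mRNAs by branched-DNA multiplex assay, scaled to two housekeeping genes and non-targeting median, log2; matched to mean KSR1 knockdown profile by Pearson correlation and euclidean distance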
- Direction: mean correlation with KSR1 profile and KSR1 correlation: higher = expression change more like KSR1 knockdown; mean distance from KSR1 profile: higher = expression change less like KSR1 knockdown
In all, the deposit lists about 14,000 reagents; this is a part drawn at random. 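Higher correlation or smaller distance means closer resemblance to KSR1 loss; control wells, including KSR1 knockdowns, recur on many plates.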 Not all columns of the deposit are shown. Not stated in the record: the time to read-out.

The first 3 records as a preview:
gene	mean correlation with KSR1 profile	mean distance from KSR1 profile	KSR1 correlation, replicate 1
KCTD15	0.528	2.2	0.683
ABCG5	0.485	3.23	0.755
GOLGA5	0.448	1.96	0.557

Results, from the start:
gene	mean correlation with KSR1 profile	mean distance from KSR1 profile	KSR1 correlation, replicate 1
KCTD15	0.528	2.2	0.683
ABCG5	0.485	3.23	0.755
GOLGA5	0.448	1.96	0.557
EGFR	0.207	1.18	0.0878
AHI1	-0.177	1.85	0.215
UPK1A	0.317	1.86	0.501
TRIB2	0.258	2.95	0.43
FPR1	0.838	0.983	0.821
OR8B8	0.669	2.82	0.776
RBP5	0.31	1.9	0.184
SLC38A3	-0.664	3.75	-0.674
CCDC186	0.325	1.55	0.494
PARP3	-0.365	3.45	-0.465
HDAC7	0.542	1.28	0.499
ALDOC	-0.271	3.96	-0.287
PQBP1	0.157	0.844	0.166
SIT1	-0.459	2.8	-0.272
MMRN1	-0.719	2.52	-0.689
ATF6	0.0419	2.27	0.196
NOX1	-0.029	2.99	-0.0132
HHIP	-0.248	2.62	-0.408
DNMBP	-0.611	1.91	-0.455
POLDIP2	-0.358	1.71	-0.123
ULBP2	0.508	1.61	0.126
PKHD1	0.00366	2.19	-0.0632
LRRC41	0.271	1.24	0.299
KCNS3	-0.58	2.18	-0.622
TP53I3	-0.113	3.56	-0.167
ANKRD49	-0.345	1.88	-0.596
PPIE	-0.426	2.87	-0.342
NKAIN1	-0.195	2.29	-0.199
ZNF75A	0.572	2.55	0.616
APOL5	0.534	1.46	0.187
MBNL2	-0.172	1.94	-0.00972
